The values that follow come from PubChem BioAssay AID2685 (National Center for Advancing Translational Sciences (NCATS), 2010).

This assay can be described thus: qHTS Assay for Lipid Storage Modulators in Drosophila S3 Cells.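 On cell number change: cells counted by Cell Tracker Red CMTPX staining in the red channel.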 The following applies: BODIPY lipid droplet fluorescence, 18-24 h; for cell number change: measured here: cell count max response, cells fed with added oleic acid. An outline of the steps:
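Drosophila S3 cells loaded with oleic acid (400 uM, as added) and compounds at several concentrations; lipid droplets imaged by 488-nm laser-scanning cytometry, 500–530 nm intensity and object ratio to cell channel. Percent activity normalized to 20 uM Triacsin C.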

Setting [1] is: measured here: lipid fluorescence (Fed channel) AC50, cells fed with added oleic acid.
Where [2] appears, read: measured here: cell number channel AC50, cells fed with added oleic acid.

The other results are listed elsewhere or left out. Further columns of the screen follow, without active or inactive calls. Most of these compounds were active or inconclusive in the main read-out, so they are no random draw. Potencies come from curve fits of mixed quality, noted in brackets.

As for `COc1cc(C2CC(=O)Oc3c(C(CCN4CCCC(C)C4)c4ccc(N(C)C)cc4)c(OC)cc(OC)c32)cc(OC)c1OC` (configuration not stated), the cell number change was 15.7%. For the same molecule, under setting [1], the AC50 was 20.6 µM [rising, single point].
With `CCOC(=O)N1CCC(N(CCOC)C(=O)Nc2ccc(Cl)cc2)CC1`, the cell number change is -19.9%. Under setting [1], the AC50 is 1.84 µM [rising, partial curve].
Turning to `CCOc1ccc(C(=O)NCCC2=CCCCC2)cc1OCC`, the cell number change is -17%. The AC50 under setting [1] was 2.06 µM [falling, partial curve].
Consider `NC1=NC2(CCCCC2)N(c2cccc(Cl)c2)C(N)=N1`, for which the cell number change was -64.6%. The concentration at half-maximal activity (AC50) under setting [2] was 29.1 µM [falling, single point]. The AC50 under setting [1] is 29.1 µM [falling, single point].
As for `Cc1cccc(C)c1NC(=O)Nc1ccc(S(N)(=O)=O)cc1`, the cell number change came out at 13.7%. The AC50 under setting [1] is 18.4 µM [falling, single point].
With `Cc1c[n+]([O-])ccc1Oc1ccc([N+](=O)[O-])cc1`, the cell number change stood at 7.43%. The AC50 under setting [1] is 29.1 µM [rising, single point].
Turning to `N#CC1=C(N)NC(SCC(=O)Nc2ccccc2)=C(C#N)C12CCCCC2`, the cell number change is -40.2%. For the same molecule, the AC50 under setting [2] is 18.4 µM [falling, partial curve]. For the same molecule, the AC50 under setting [1] is 16.4 µM [falling, single point].
In the case of `Cc1ccsc1/C=N/NC(=O)C1CC(=O)N(c2ccccc2)C1` (configuration not stated), the cell number change was -1.81%. The AC50 under setting [1] was 0.92 µM [falling, partial curve].
For `Cc1csc2nc(CSc3nc4ccccc4o3)c(Br)n12`, the cell number change was -15.9%. For the same molecule, the AC50 under setting [1] was 1.16 µM [rising, full curve, poor fit].
Take `Cc1cc(Nc2ccccc2)n(-c2nc3ccccc3[nH]2)n1`: the cell number change was -49.5%. Moreover, the AC50 under setting [2] was 16.4 µM [falling, single point]. Further, the AC50 under setting [1] is 2.06 µM [rising, partial curve, poor fit].
Take `CS(=O)(=O)NCc1nnc(SCC(=O)NC2CCCCC2)n1-c1ccc(F)cc1`: the cell number change stood at 1.25%. Under setting [1], the AC50 was 2.31 µM [falling, full curve].
Turning to `C[C@@H](NC(=O)c1nc[nH]c1C(=O)N1CCc2ccccc2C1)c1ccccc1`, the cell number change stood at 3.56%. Also, the half-maximal activity concentration (AC50) under setting [1] is 0.651 µM [rising, partial curve, poor fit].
In the case of `O=C(COc1ccc2ccccc2c1)N1CCNCC1`, the cell number change was -17.9%. For the same molecule, under setting [1], the half-maximal activity concentration (AC50) was 3.66 µM [rising, partial curve, poor fit].
For `O=CN1CCN(C(=O)c2cccc([N+](=O)[O-])c2)CC1`, the cell number change stood at 28.5%. Also, the AC50 under setting [1] was 29.1 µM [rising, single point].
Take `CCc1ccc(OCC(=O)NC2CC(C)(C)NC(C)(C)C2)cc1`: the cell number change came out at 61.1%. Also, the AC50 under setting [2] was 29.1 µM [rising, single point]. Besides, the half-maximal activity concentration (AC50) under setting [1] is 18.4 µM [falling, single point].
For `CCn1cc(/C=N/NC(=O)c2ccc3c(c2)OCO3)c(C)n1`, the cell number change was 41.8%. The AC50 under setting [2] was 11.6 µM [rising, partial curve]. Moreover, the concentration at half-maximal activity (AC50) under setting [1] was 0.651 µM [falling, single point].
`COC(=O)c1sccc1NC(=O)c1ccncc1`: the cell number change was -18%. Besides, the AC50 under setting [1] is 18.4 µM [rising, partial curve, poor fit].
For the molecule `COc1ccc(N=C2SC(C(=O)Nc3ccc4c(c3)OCO4)CC(=O)N2C)cc1` (configuration not stated), the cell number change is 34.8%. For the same molecule, the AC50 under setting [2] was 9.2 µM [rising, partial curve]. For the same molecule, the AC50 under setting [1] is 0.461 µM [rising, full curve].
Regarding `C(/C=C/c1ccco1)=N/N1CCN(c2ccccc2)CC1`, the cell number change came out at 49.5%. Also, under setting [2], the concentration at half-maximal activity (AC50) was 2.91 µM [rising, full curve]. In addition, the concentration at half-maximal activity (AC50) under setting [1] was 6.51 µM [rising, single point].
On to `Nn1cnnc1SCC(=O)Nc1ccc(C2CCCCC2)cc1`, for which the cell number change stood at 21.8%. Besides, under setting [2], the AC50 was 2.06 µM [rising, partial curve].
In the case of `O=C(CN1C(=O)C2CC=CCC2C1=O)Nc1ccc(S(=O)(=O)Nc2ncccn2)cc1` (configuration not stated), the cell number change was determined as 13.5%. Also, the AC50 under setting [1] is 13 µM [rising, single point].
Consider `O=C(NCc1cccnc1)C1CC(c2ccccc2Cl)=NO1` (configuration not stated), for which the cell number change was 29.1%. Also, the AC50 under setting [1] was 6.51 µM [falling, single point].
On to `COC(=O)c1cn(NC(=O)Cn2nc([N+](=O)[O-])c(Br)c2C)c(=O)c2ccccc12`, for which the cell number change is -3.55%.
For the molecule `CCn1c(SCC(=O)Nc2sc3c(c2C#N)CCCC3)nnc1-c1ccco1`, the cell number change was -80.4%. The AC50 under setting [2] is 29.1 µM [falling, single point].
Turning to `O=c1c(Cl)c(NCCO)cnn1-c1cccc(Cl)c1`, the AC50 under setting [1] was 4.11 µM [falling, full curve].
Take `COc1ccc(-n2c3nc4ccccc4nc3c3c(=N)oc(C)nc32)cc1`: the cell number change was determined as 140%. For the same molecule, the AC50 under setting [2] was 0.651 µM [rising, single point]. The half-maximal activity concentration (AC50) under setting [1] is 5.8 µM [rising, single point].
Regarding `Cc1cccc(NC(=O)CNC(=O)c2ccco2)n1`, the cell number change was -2.69%.
As for `Clc1ccc(-n2ncc3c(NCc4ccco4)ncnc32)cc1`, the cell number change was -11.9%. The AC50 under setting [2] is 0.00517 µM [falling, full curve, poor fit].
For `Cc1ccccc1N=C1NC(=O)CC(c2ccccc2)S1` (configuration not stated), the cell number change was 48%. In addition, under setting [2], the AC50 is 8.2 µM [rising, partial curve]. The AC50 under setting [1] was 0.651 µM [rising, single point].
For `CCOC(=O)c1c(C)[nH]c(C)c1C(=O)CSc1nc2ccccc2c(=O)n1-c1ccc(CC)cc1`, the cell number change is 24.9%. In addition, the half-maximal activity concentration (AC50) under setting [2] is 4.11 µM [rising, full curve, poor fit]. Also, under setting [1], the AC50 is 29.1 µM [rising, single point].
Consider `C/C(=N\OCC(=O)Nn1c(C)nc2ccccc2c1=O)c1ccccc1`, for which the AC50 was 0.231 µM [falling, full curve, poor fit] under setting [2] and 29.1 µM [falling, single point] under setting [1].
Regarding `CC1(C)Cc2nc3sc4c(=O)n(Cc5ccccc5)cnc4c3cc2CS1`, the cell number change was -1.84%. Further, under setting [1], the concentration at half-maximal activity (AC50) was 0.411 µM [rising, partial curve].
Take `CC(NC(=O)CNC(=O)c1ccccc1Br)c1cccs1` (configuration not stated): the cell number change worked out at 17.7%.
Take `O=C(CN1CCCCC1)Nc1ccccc1`: the cell number change was -24.4%. The AC50 under setting [1] is 0.103 µM [falling, full curve, poor fit].
Consider `C/C(=N\NS(=O)(=O)c1c(C)cc(C)cc1C)c1ccncc1`, for which the cell number change came to 18.5%. Moreover, the AC50 under setting [1] was 32.6 µM [rising, partial curve, poor fit].
In the case of `COc1ccc(N2CC(C(=O)Nc3cc(C(F)(F)F)ccc3N3CCCC3)CC2=O)c(OC)c1` (configuration not stated), the cell number change is -33%.
As for `CCOc1ccc(CCNC(=O)CN2C(=O)CCSc3ccccc32)cc1`, the cell number change is 11.9%. Besides, under setting [1], the AC50 was 0.00461 µM [falling, full curve, poor fit].
In the case of `O=C(O)c1ccc(S(=O)(=O)N2CCC(c3nc(-c4ccccc4Cl)no3)CC2)cc1`, the cell number change is 34.9%. The AC50 under setting [2] was 5.17 µM [rising, full curve, poor fit].
For the molecule `CCOC(=O)/C(=N\Nc1cc(Cl)ccc1Cl)N1CCN(C)CC1`, the cell number change amounted to 9.49%. The AC50 under setting [1] was 0.411 µM [rising, full curve].
On to `O=C1[C@@H]2CSCN2C(=O)CN1Cc1ccc(F)cc1`, for which the cell number change was -36%. Further, the concentration at half-maximal activity (AC50) under setting [2] was 29.1 µM [falling, single point]. Besides, the AC50 under setting [1] was 29.1 µM [falling, single point].
Turning to `COc1ccc(Cc2nnc(N/N=C/c3ccc(O)cc3)[nH]c2=O)cc1OC`, the cell number change came out at 6.91%. Moreover, under setting [1], the AC50 is 0.164 µM [rising, full curve, poor fit].
As for `COc1cc(C=Nc2cccc([N+](=O)[O-])c2C)ccc1OC(C)=O`, the cell number change was -9.17%. Moreover, the AC50 under setting [1] is 29.1 µM [rising, partial curve, poor fit].
Regarding `CC(C)c1ccc(N2C(=O)CSC23C(=O)N2CCCc4cccc3c42)cc1` (configuration not stated), the AC50 under setting [1] was 1.84 µM [rising, partial curve].
Turning to `Cc1cccc(NC(=O)c2cc([N+](=O)[O-])ccc2N2CCCCC2)n1`, the cell number change is 12.5%. The AC50 under setting [2] is 6.51 µM [rising, single point].
For `CCCCCNC(=O)c1ccc2c(=O)[nH]c3c(C(=O)NCC4CCCO4)sc(=S)n3c2c1` (configuration not stated), under setting [1], the AC50 was 0.517 µM [rising, single point].
In the case of `Cc1ccc(NC(=O)c2cnccn2)nc1`, the cell number change came out at 16.8%.
For `COC(=O)C(N)Cc1ccc(Cl)cc1` (configuration not stated), the cell number change was -27.5%. Besides, under setting [2], the AC50 is 1.84 µM [falling, full curve, poor fit]. For the same molecule, the AC50 under setting [1] is 2.06 µM [falling, full curve].
With `O=C(C1CCCN(S(=O)(=O)c2ccc(Br)s2)C1)N1CCCCCC1` (configuration not stated), the AC50 under setting [1] was 29.1 µM [rising, single point].
For `COc1ccc(-c2csc(N(CC3CCCO3)C(=O)c3ccccc3)n2)cc1` (configuration not stated), the AC50 is, setting by setting: under setting [2], 6.51 µM [rising, single point]; under setting [1], 1.03 µM [rising, partial curve].
Regarding `Cc1cc(N2CCCCC2)nc(SCc2ccc(C#N)cc2)n1`, the cell number change was -26%. Moreover, the AC50 under setting [1] was 32.6 µM [falling, single point].
For the molecule `Cc1ccc(-n2ncc3c2CCCC3NC(=O)CSc2ccccn2)cc1C` (configuration not stated), the cell number change is -64%. Moreover, the AC50 under setting [2] was 31.6 µM [falling, single point]. The AC50 under setting [1] was 25.1 µM [falling, single point].
As to `CC1CCCN(Cc2nc3c(c(=O)n(C)c(=O)n3C)n2Cc2c(F)cccc2Cl)C1` (configuration not stated), the concentration at half-maximal activity (AC50) under setting [2] is 0.164 µM [rising, full curve, poor fit].
Turning to `Cc1c(NS(=O)(=O)c2ccc(N=NN(C)C)cc2)c(=O)n(-c2ccccc2)n1C`, the cell number change is 39.5%. In addition, the AC50 under setting [2] is 6.51 µM [rising, full curve, poor fit]. Further, under setting [1], the AC50 was 14.6 µM [rising, partial curve].
`CC(C)(C)c1ccc(OCC(O)CN2CCN(C(=O)c3ccccc3)CC2)cc1` (configuration not stated): the cell number change is -37%. Also, under setting [2], the AC50 was 23.1 µM [falling, single point]. Under setting [1], the half-maximal activity concentration (AC50) is 11.6 µM [falling, single point].
With `CSc1nc2c(c(=O)[nH]1)C(c1cccc(Br)c1)CC(=O)N2` (configuration not stated), the cell number change stood at 2.99%. For the same molecule, the AC50 under setting [2] was 0.092 µM [falling, full curve, poor fit].
In the case of `CC1CCN(C(=O)c2ccc(S(=O)(=O)Cc3cc(F)ccc3F)c([N+](=O)[O-])c2)CC1`, the cell number change is -3.27%. Further, the AC50 under setting [1] was 2.06 µM [falling, partial curve].

The AC50 is the concentration giving half of the maximal activity seen. Low readings indicate greater potency, high ones weaker potency.
